# PubChem BioAssay AID1224826 – NIAID – 2016
# Screen: 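Genes that change LPS-induced Tnf promoter activity in mouse macrophages when knocked down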 (primary screen)
# Cell system: RAW264.7 G9 macrophages from mouse bearing reporters for p65 (GFP) and the Tnf promoter (mCherry)
# Knock-down reagent: siRNA pool against mouse genes, 100 nM
# Time to read-out: 16 h of LPS stimulation, after 2 days of siRNA transfection
# Conditions: bacterial lipopolysaccharide (Salmonella minnesota R595), 10 ng/ml
# Detection: 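Nuclear mCherry signal of the Tnf promoter reporter measured by imaging after background removal, scaled to each plate median and turned into robust z-scores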
# Direction: Tnf reporter robust z-score: higher = stronger Tnf promoter reporter signal after LPS
# Active means: 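Called active when robust z-score is at most -1.3, matching the median of the Tlr4 knock-down control, or over 3; control wells and wells with under 50 cells never active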
# Calls: active = Tnf reporter clearly lowered or raised; inactive = no clear change in Tnf reporter
# In all, the deposit lists about 17,000 reagents; this is an unselected part. About 1,110 of all reagents (6.6%) count as active. 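Active means lowered or raised reporter signal; replicate intensities are raw and not normalised per plate.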 Not all columns of the deposit are shown.
gene symbol,Tnf reporter robust z-score,fewer than 50 cells in well,call
Dynlrb2 (dynein light chain roadblock-type 2),-0.35,enough cells in well,inactive
Pramel7 (PRAME like 7),0.72,enough cells in well,inactive
Ranbp9 (RAN binding protein 9),0.55,enough cells in well,inactive
Vnn3 (vanin 3),1.33,enough cells in well,inactive
Rbm7 (RNA binding motif protein 7),-0.07,enough cells in well,inactive
Prss33 (serine protease 33),-1.85,enough cells in well,active
Spsb4 (splA/ryanodine receptor domain and SOCS box containing 4),,fewer than 50 cells per well; well left out of calls,inactive
"Ttll12 (tubulin tyrosine ligase-like family, member 12)",-0.57,enough cells in well,inactive
BC035947 (cDNA sequence BC035947),-0.51,enough cells in well,inactive
"Ppm1d (protein phosphatase 1D magnesium-dependent, delta isoform)",1.34,enough cells in well,inactive
Numb (NUMB endocytic adaptor protein),0.45,enough cells in well,inactive
Irgm2 (immunity-related GTPase family M member 2),-0.43,enough cells in well,inactive
"Pitpnm2 (phosphatidylinositol transfer protein, membrane-associated 2)",,fewer than 50 cells per well; well left out of calls,inactive
Tchhl1 (trichohyalin-like 1),-0.27,enough cells in well,inactive
Ifit2 (interferon-induced protein with tetratricopeptide repeats 2),-0.87,enough cells in well,inactive
Zfp119a (zinc finger protein 119a),,fewer than 50 cells per well; well left out of calls,inactive
Or51f23b (olfactory receptor family 51 subfamily F member 23B),,fewer than 50 cells per well; well left out of calls,inactive
a (nonagouti),-0.3,enough cells in well,inactive
Or1e1 (olfactory receptor family 1 subfamily E member 1),-0.03,enough cells in well,inactive
"Atp6v1e1 (ATPase, H+ transporting, lysosomal V1 subunit E1)",-0.14,enough cells in well,inactive
Jam2 (junction adhesion molecule 2),0.86,enough cells in well,inactive
"P2ry4 (pyrimidinergic receptor P2Y, G-protein coupled, 4)",-0.6,enough cells in well,inactive
AI463229 (expressed sequence AI463229),0.88,enough cells in well,inactive
Abat (4-aminobutyrate aminotransferase),1.09,enough cells in well,inactive

2 successive reagents already listed:
gene symbol,Tnf reporter robust z-score,fewer than 50 cells in well,call
Ifit2 (interferon-induced protein with tetratricopeptide repeats 2),-0.87,enough cells in well,inactive
Zfp119a (zinc finger protein 119a),,fewer than 50 cells per well; well left out of calls,inactive
